Data taken from patent US20110105382A1, “CALMODULIN-BINDING PEPTIDES THAT REDUCE CELL PROLIFERATION IN CANCER AND SMOOTH MUSCLE PROLIFERATION DISEASES” (priority 2007, published 2011).
Part of at least one peptide drawing is inferred or uncertain, most often the ends. Where no end group is shown, it is not given here.

Tests used:
[1] = tested on: wild-type mouse embryonic fibroblasts; experiment: MTT proliferation assay, wild-type MEF; type: cell-based; conditions: nucleofection, 1 mM, asynchronized cells
[2] = tested on: CDK2; experiment: Western blot of CDK2 phosphorylation after peptide delivery; type: cell-based, mouse; conditions: after peptide delivery into VSMC
[3] = tested on: primary mouse aortic SMC; type: cell-based; conditions: peptide delivered via nucleofection
Procedure: (§1) Cell culture conditions The isolation and culture of primary mouse aortic VSMC have was performed according to methods previously described (Afroze T, Yang L L, Wang C, Gros R, Kalair W, Hogue A N, Mungrue I N, Zhu Z, Husain M. Calcineurin-independent regulation of plasma membrane Ca2+ ATPase-4 in the vascular smooth muscle cell cycle. Am J Physiol Cell Physiol. July 2003; 285(1):C88-95). VSMCs were grown in DMEM (GIBCO/BRL, Gaithersburg, Md.) supplemented with 10% FBS (Hyclone, Logan, Utah), 50 ng/mL platelet-derived growth factor (PDGF, Sigma) and 1% penicillin-streptomycin (GIBCO/BRL). For serum starvation, cells were grown to 60% to 70% confluence, washed twice with PBS, and cultured in starvation medium (0.25% FBS-supplemented DMEM) for 72 hours to achieve Go arrest. Progression to G1/S was brought about by stimulation with 10% FBS and 50 ng/mL PDGF for 24 hours. Cells and reagents for primary human aortic VSMC culture were purchased from Cascade Biologics. Human VSMC(C-007-5C) were grown in Medium 231 with Smooth Muscle Growth Supplement (SMGS) S-007-25 and 1% penicillin-streptomycin (GIBCO/BRL). […]
MTT colorimetric survival assay. […] Cell survival was assessed (Denizot, 1986). […] Dye absorbance in viable cells was measured at 570 nm with 630 nm as a reference wavelength. […]

[4] = tested on: cyclins E1/E2 double knockout MEF; experiment: MTT proliferation assay, cyclin E1/E2 double knockout MEF; type: cell-based, mouse; conditions: nucleofection, 1 mM, asynchronized cells
[5] = tested on: cyclins E1/E2 double knockout MEF; experiment: Cell cycle analysis, cyclin E1/E2 double knockout MEF; type: cell-based, mouse; conditions: starved cells, serum stimulation 10% FBS, 24 hr (peptide) or 20 hr (CMZ)
Procedure: as §1
Flow cytometric analysis. […] Cells were counted in a flow cytometer (FACScan, BD Biosciences), and G0/G1, S, and G2/M cell percentages were calculated with Cell Quest software (BD Biosciences).

[6] = tested on: wild-type MEF; experiment: Cell cycle analysis, wild-type MEF; type: cell-based, mouse; conditions: starved cells, serum stimulation 10% FBS, 24 hr (peptide) or 20 hr (CMZ)
[7] = tested on: primary mouse aortic SMC; experiment: Flow cytometric cell cycle analysis, primary mouse aortic SMC; type: cell-based; conditions: nucleofection 1 mM, starved then serum-stimulated cells
[8] = tested on: calcineurin; experiment: Co-immunoprecipitation of CaM with calcineurin; type: binding, mouse; conditions: after peptide delivery into VSMC
[9] = biological target: T1, cyclin E/CDK2 (Mus musculus, UniProt P0DP26); experiment: Histone H1 in vitro kinase assay; type: biochemical; conditions: differing Ca2+ concentrations, peptide 100 μM
T1 construct: endogenous in cells; host or cells: primary mouse aortic VSMC (G1/S-synchronized), immunoprecipitated complexes
Procedure: Immunoprecipitation and kinase assays. 5×10^6 SMC were harvested and re-suspended with 2 ml of lysis buffer (50 mM Tris (pH 7.4), 250 mM NaCl, 5 mM EDTA, 0.1% NP-40, 0.5 mM DTT, 0.1 mM Na3VO4, 5 μg/ml leupeptin, 5 μg/ml aprotinin, 2 mM PMSF, and 10% glycerol). After homogenization, cell lysates were clarified by centrifugation at 12×10^3 rpm, 4° C. for 30 min, and the supernatant was collected. An aliquot was taken for protein concentration determination using the BCA protein assay kit (Sigma). Cell extracts (200 μg) were then incubated for 2 hr at 4° C. with saturating concentrations of polyclonal antibodies (Abs). […]
For the in vitro kinase assays, 20 μl of kinase reaction mixture (20 mM Tris (pH 7.4), 5 mM MgCl2, 2.5 mM MnCl2, 1 mM DTT, 10 μg of C-terminal of human Rb protein (Upstate Biotech.) or 4 μg of histone-H1 (Upstate Biotech.) as substrates, 13 μM ATP, and 2.4 μCi [γ-^32P]ATP (Amersham Pharmacia)) was added to CDK2-, cyclin E-, or cyclin A-immunoprecipitated (IPd) complexes after removing the washing buffer from GammaBind™ G Sepharose resin. Based on the total calcium content of kinase reaction mixtures (as determined by inductively coupled plasma atomic emission spectrometry), amounts of EGTA required to yield final concentrations of free Ca^2+ ion (0, 100 or 500 nM) were calculated by WinMaxC (http://www.stanford.edu/˜cpatton/winmaxc2.html). […]

[10] = tested on: CDK2; experiment: Ca2+-sensitive CDK2 activity in cyclin E-deficient MEF; type: biochemical, mouse; conditions: cyclin E1/E2 deficient MEF
[11] = tested on: cyclin E/CDK2 complex formation; experiment: Co-immunoprecipitation of cyclin E/CDK2 complex; type: binding, mouse; conditions: each peptide 100 μM
[12] = biological target: T2, CaM-cyclin E interaction (Mus musculus, UniProt P0DP26); experiment: Co-immunoprecipitation of CaM with cyclin E; type: binding
T2 construct: endogenous in cells; host or cells: SMC extracts (primary mouse aortic SMC)

GGAEFSARSRKRKANVTVFLQD [CBS]
proliferation of wild-type MEF (MTT) [1]: inhibited
inhibition of phosphorylation of CDK2 on Thr160 [2]: 65%
level of inhibitory phosphorylation of CDK2 [2]: did not alter
proliferation of primary mouse aortic SMC (MTT) [3]: delayed and inhibited
proliferation of MEF lacking cyclins E1 and E2 (MTT) ([4]; listed as CBS peptide): not inhibited
proliferation of MEF lacking cyclins E1 and E2 (MTT) ([4]; listed as SEQ ID NO:2): not affected
cell cycle progression into S phase, cyclins E1/E2 double knockout MEF [5]: not
cell cycle progression into S phase, wild-type MEF [6]: inhibited
cell cycle progression (FACS) [7]: G1 phase cell cycle arrest
binding of CaM to calcineurin ([8]; listed as CBS peptide): not altered
binding of CaM to calcineurin ([8]; listed as SEQ ID NO:2): did not alter
Ca2+-sensitive enhancement of cyclin E/CDK2 activity [9]: abrogated
Ca2+-sensitive CDK2 activity of MEF deficient in cyclins E [10]: not inhibited
cyclin E/CDK2 complex formation [11]: not affected
CaM-cyclin E interactions after peptide delivery into cells ([12]; Western blot and co-immunoprecipitation after delivery into VSMC): inhibited
cyclin E-CaM interaction ([12]; co-immunoprecipitation, each peptide 100 μM): significantly reduced
